The list shows a part of the results.
Columns and labels:
Test in all cases: glycan array binding signal (z-score within array); higher = stronger binding
Conditions in all cases: glycan notation: IUPAC condensed, linker removed
[1] = target: Fuc(a1-2)[GalNAc(a1-3)]Gal(b1-4)GlcNAc(b1-6)GalNAc
Method in brief: (§1)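 Arrays were curated from the Consortium for Functional Glycomics database, 3228 in total, and kept only where the protein sequence was available. Binding is expressed as a within-array Z-score. This score was averaged across arrays of the same protein sequence at different concentrations or buffers and across linkers, and negative values can be read as non-binding.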

[2] = target: Fuc(a1-2)[GalNAc(a1-3)]Gal(b1-4)[Fuc(a1-3)]GlcNAc
Method in brief: as §1

[3] = target: Fuc(a1-2)[GalNAc(a1-3)]Gal(b1-4)[Fuc(a1-3)]GlcNAc(b1-3)GalNAc
Method in brief: as §1

[4] = target: Fuc(a1-2)[GalNAc(a1-4)]Gal(b1-4)GlcNAc
Method in brief: as §1

[5] = target: Fuc(a1-2)[GalNAc(b1-3)]Gal
Method in brief: as §1

Fuc(a1-3)GlcNAc = target: Fuc(a1-3)GlcNAc
Method in brief: as §1

[6] = target: Fuc(a1-3)[Gal(b1-4)]Glc6S
Method in brief: as §1

[7] = target: Fuc(a1-3)[Gal(b1-4)]GlcNAc
Method in brief: as §1

[8] = target: Fuc(a1-3)[Gal(b1-4)]GlcNAc(b1-2)Man
Method in brief: as §1

[9] = target: Fuc(a1-3)[Gal(b1-4)]GlcNAc(b1-2)Man(a1-3)[Fuc(a1-3)[Gal(b1-4)]GlcNAc(b1-2)Man(a1-6)]Man(b1-4)GlcNAc(b1-4)GlcNAc
Method in brief: as §1

[10] = target: Fuc(a1-3)[Gal(b1-4)]GlcNAc(b1-2)Man(a1-3)[Fuc(a1-3)[Gal(b1-4)]GlcNAc(b1-2)Man(a1-6)]Man(b1-4)GlcNAc(b1-4)[Fuc(a1-6)]GlcNAc
Method in brief: as §1

[11] = target: Fuc(a1-3)[Gal(b1-4)]GlcNAc(b1-3)Gal(b1-3)[Fuc(a1-4)]GlcNAc
Method in brief: as §1

[12] = target: Fuc(a1-3)[Gal(b1-4)]GlcNAc(b1-3)Gal(b1-4)[Fuc(a1-3)]GlcNAc
Method in brief: as §1

[13] = target: Fuc(a1-3)[Gal(b1-4)]GlcNAc(b1-3)Gal(b1-4)[Fuc(a1-3)]GlcNAc(b1-3)Gal(b1-4)[Fuc(a1-3)]GlcNAc
Method in brief: as §1

[14] = target: Fuc(a1-3)[Gal(b1-4)]GlcNAc(b1-3)GalNAc
Method in brief: as §1

[15] = target: Fuc(a1-3)[Gal(b1-4)]GlcNAc(b1-4)Gal(b1-4)[Fuc(a1-3)]GlcNAc
Method in brief: as §1

[16] = target: Fuc(a1-3)[Gal(b1-4)]GlcNAc(b1-4)Gal(b1-4)[Fuc(a1-3)]GlcNAc(b1-4)Gal(b1-4)[Fuc(a1-3)]GlcNAc
Method in brief: as §1

[17] = target: Fuc(a1-3)[Gal(b1-4)]GlcNAc(b1-6)GalNAc
Method in brief: as §1

[18] = target: Fuc(a1-3)[Gal(b1-4)]GlcNAc(b1-6)[Gal(b1-3)GlcNAc(b1-3)]Gal(b1-4)Glc
Method in brief: as §1

[19] = target: Fuc(a1-3)[Gal(b1-4)]GlcNAc(b1-6)[Neu5Ac(a2-3)Gal(b1-3)]GalNAc
Method in brief: as §1

[20] = target: Fuc(a1-3)[Gal(b1-4)]GlcNAc6S
Method in brief: as §1

[21] = target: Fuc(a1-3)[Gal3S(b1-4)]Glc
Method in brief: as §1

[22] = target: Fuc(a1-3)[Gal3S(b1-4)]GlcNAc
Method in brief: as §1

[23] = target: Fuc(a1-3)[Gal3S(b1-4)]GlcNAc6S
Method in brief: as §1

[24] = target: Fuc(a1-3)[GalNAc(b1-4)]GlcNAc
Method in brief: as §1

[25] = target: Fuc(a1-3)[GalNAc(b1-4)]GlcNAc6S
Method in brief: as §1

Fuc(a1-4)GlcNAc = target: Fuc(a1-4)GlcNAc
Method in brief: as §1

Fuc(b1-3)GlcNAc = target: Fuc(b1-3)GlcNAc
Method in brief: as §1

Gal(a1-2)Gal = target: Gal(a1-2)Gal
Method in brief: as §1

Gal(a1-3)Gal = target: Gal(a1-3)Gal
Method in brief: as §1

B1: MFG-E8 (Mus musculus), P21956 (protein)
chain: MQVSRVLAALCGMLLCASGLFAASGDFCDSSLCLNGGTCLTGQDNDIYCLCPEGFTGLVCNETERGPCSPNPCYNDAKCLVTLDTQRGDIFTEYICQCPVGYSGIHCETETNYYNLDGEYMFTTAVPNTAVPTPAPTPDLSNNLASRCSTQLGMEGGAIADSQISASSVYMGFMGLQRWGPELARLYRTGIVNAWTASNYDSKPWIQVNLLRKMRVSGVMTQGASRAGRAEYLKTFKVAYSLDGRKFEFIQDESGGDKEFLGNLDNNSLKVNMFNPTLEAQYIKLYPVSCHRGCTLRFELLGCELHGCSEPLGLKNNTIPDSQMSASSSYKTWNLRAFGWYPHLGRLDNQGKINAWTAQSNSAKEWLQVDLGTQRQVTGIITQGARDFGHIQYVASYKVAHSDDGVQWTVYEEQGSSKVFQGNLDNNSHKKNIFEKPFMARYVRVLPVSWHNRITLRLELLGC
glycan array binding signal (z-score) [1]: -0.016 | glycan array binding signal (z-score) [2]: 0.187 | glycan array binding signal (z-score) [3]: 1.65 | glycan array binding signal (z-score) [4]: -0.581 | glycan array binding signal (z-score) [5]: -0.529 | glycan array binding signal (z-score) (Fuc(a1-3)GlcNAc): -0.278 | glycan array binding signal (z-score) [6]: -0.159 | glycan array binding signal (z-score) [7]: -0.249 | glycan array binding signal (z-score) [8]: 0.369 | glycan array binding signal (z-score) [9]: -0.753 | glycan array binding signal (z-score) [10]: 0.786 | glycan array binding signal (z-score) [11]: -0.604 | glycan array binding signal (z-score) [12]: -0.573 | glycan array binding signal (z-score) [13]: 0.878 | glycan array binding signal (z-score) [14]: 0.628 | glycan array binding signal (z-score) [15]: -0.206 | glycan array binding signal (z-score) [16]: 0.172 | glycan array binding signal (z-score) [17]: 0.516 | glycan array binding signal (z-score) [18]: 0.093 | glycan array binding signal (z-score) [19]: -0.592 | glycan array binding signal (z-score) [20]: 0.177 | glycan array binding signal (z-score) [21]: -0.681 | glycan array binding signal (z-score) [22]: 0.045 | glycan array binding signal (z-score) [23]: -0.198 | glycan array binding signal (z-score) [24]: -0.553 | glycan array binding signal (z-score) [25]: -0.263 | glycan array binding signal (z-score) (Fuc(a1-4)GlcNAc): -0.73 | glycan array binding signal (z-score) (Fuc(b1-3)GlcNAc): -0.416 | glycan array binding signal (z-score) (Gal(a1-2)Gal): 0.39 | glycan array binding signal (z-score) (Gal(a1-3)Gal): -0.538

— the supplement of paper PMC8728848
